PubChem BioAssay AID493246, Drosophila RNAi Screening Center – 2011
Screen: 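Identify essential fly genes by loss of cell viability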 (primary screen). Cell system: Drosophila Kc and S2R+ cells. Knock-down reagent: long dsRNA against Drosophila genes. Measured: 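Cell number per well after knock-down, printed as raw plate values; calls were based on per-plate z-scores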. Reading the numbers: Kc cell number and S2R+ cell number: higher = more cells remaining. Active means: 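Counted as a hit if cell number falls by a z-score of at least 3 within its plate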.
In all, the deposit lists about 21,000 reagents; below is a random part of those with a known target gene and a result. Over the whole deposit, 429 (2%) got an active call. 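Values are raw and not normalised between plates; calls rest on per-plate z-scores that were not deposited.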 Entries without a mark were called inactive. Reagents against one gene are numbered here. A plus sign joins genes that one reagent is predicted to hit. Not given: the amount of reagent, the time to read-out.

What is on record for CG9084?
Kc cell number, rep 1: 1.44e6; Kc cell number, rep 2: 1.53e6; S2R+ cell number, rep 1: 1.22e6; S2R+ cell number, rep 2: 1.26e6

With CG9459, what was measured?
Kc cell number, rep 1: 1.66e6; Kc cell number, rep 2: 1.76e6; S2R+ cell number, rep 1: 1.26e6; S2R+ cell number, rep 2: 1.32e6

For Snrk, how do the results read?
Kc cell number, rep 1: 1.34e6; Kc cell number, rep 2: 1.47e6; S2R+ cell number, rep 1: 1.08e6; S2R+ cell number, rep 2: 1.17e6

With Obp57e, how do the results read?
Kc cell number, rep 1: 5.64e5; S2R+ cell number, rep 1: 7.67e5

How did the screen score CG34316?
Kc cell number, rep 1: 1.41e6; Kc cell number, rep 2: 1.63e6; S2R+ cell number, rep 1: 1.03e6; S2R+ cell number, rep 2: 1.18e6

How did the screen score CG17600 #1?
Kc cell number, rep 1: 1.50e6; Kc cell number, rep 2: 1.55e6; S2R+ cell number, rep 1: 1.08e6; S2R+ cell number, rep 2: 1.15e6

Which result is listed for CG17600 #2?
Kc cell number, rep 1: 1.52e6; Kc cell number, rep 2: 1.53e6; S2R+ cell number, rep 1: 1.04e6; S2R+ cell number, rep 2: 1.18e6

What is on record for Cubn?
Kc cell number, rep 1: 5.89e5; S2R+ cell number, rep 1: 9.15e5

Which result is listed for CG34319 (retired record)?
Kc cell number, rep 1: 2.87e5 (active); S2R+ cell number, rep 1: 5.33e5

Reformatted: 2 of the entries above.
| target | dsRNA no. | Kc cell number, rep 1 | Kc cell number, rep 2 | S2R+ cell number, rep 1 | S2R+ cell number, rep 2 |
| --- | --- | --- | --- | --- | --- |
| CG9459 | 1 | 1.66e6 | 1.76e6 | 1.26e6 | 1.32e6 |
| Snrk | 1 | 1.34e6 | 1.47e6 | 1.08e6 | 1.17e6 |

Additional reagents follow.
For Pcl, how do the results read?
Kc cell number, rep 1: 1.28e6; Kc cell number, rep 2: 1.36e6; S2R+ cell number, rep 1: 1.15e6; S2R+ cell number, rep 2: 1.24e6

How did the screen score CG31559 #1?
Kc cell number, rep 1: 1.51e6; Kc cell number, rep 2: 1.39e6; S2R+ cell number, rep 1: 1.36e6; S2R+ cell number, rep 2: 1.43e6

What did the screen give for CG31559 #2?
Kc cell number, rep 1: 1.52e6; Kc cell number, rep 2: 1.54e6; S2R+ cell number, rep 1: 1.38e6; S2R+ cell number, rep 2: 1.50e6

For eIF4G2, what does the deposit list?
Kc cell number, rep 1: 1.56e6; Kc cell number, rep 2: 1.54e6; S2R+ cell number, rep 1: 1.29e6; S2R+ cell number, rep 2: 1.60e6

How did the screen score Tim10 + CG42497?
Kc cell number, rep 1: 1.22e6; Kc cell number, rep 2: 1.43e6; S2R+ cell number, rep 1: 9.26e5; S2R+ cell number, rep 2: 6.54e5
